Screen size: about 220,000 compounds; about 770 (0.35%) were called active. This list was built around the results that the source calls inconclusive (neither active nor inactive); the mix of calls is not that of the screen. Cut-off read from the data, not from the text of the source: active = binding response below about 49% or above about 150%; inconclusive = no clear call, values can overlap the other calls; inactive = in between.
Molecular target: Guanine nucleotide-binding protein G(o) subunit alpha (Homo sapiens) (UniProt P09471)
Test: RGS7-Galphao binding modulators, primary screen, biochemical, multiplexed bead flow cytometry (AID 1439);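 note: fluorescent Galphao held in activated GDP-AlF4 state binding bead-coupled RGS7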
Details: at 10 µM, actives lie on both sides

Protein sequences, listed by entry. Tags and fused reporters are not part of them.
UniProt P09471, whole entry, looked up: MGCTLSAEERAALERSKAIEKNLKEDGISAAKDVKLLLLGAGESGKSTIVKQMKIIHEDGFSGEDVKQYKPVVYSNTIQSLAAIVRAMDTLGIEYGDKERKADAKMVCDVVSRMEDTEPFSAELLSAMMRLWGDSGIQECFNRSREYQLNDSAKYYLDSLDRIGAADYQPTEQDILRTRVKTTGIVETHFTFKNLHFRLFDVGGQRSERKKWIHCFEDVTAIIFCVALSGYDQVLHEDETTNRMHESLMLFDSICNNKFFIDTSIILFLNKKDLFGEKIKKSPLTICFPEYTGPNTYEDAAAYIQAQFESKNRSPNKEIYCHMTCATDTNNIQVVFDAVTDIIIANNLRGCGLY

SMILES	binding response (% of control)
S=C(NCC1CCCO1)NC1CCCC1 (configuration not stated)	inconclusive: 85.7%
Cc1ccc(C)c(NC(=O)CSc2nnc(-c3ccccc3)n2N)c1	inactive: 112%
CCC(=O)NCc1csc(-c2cccs2)n1	inconclusive: 123%
Cc1ccc(-n2nc(C(=O)O)cc2-c2ccc(Cl)cc2)cc1	inconclusive: 83.5%
CC1CC(C)(C)NC(=S)N1CCCC(=O)Nc1ccc(F)cc1 (configuration not stated)	inconclusive: 108%
CN(C)C(=O)CSc1nnc(-c2cccs2)n1-c1ccccc1	inconclusive: 101%
Cc1ccc(S(=O)(=O)Nc2ccc3c(c2)nc(CCN2CCCCC2)n3C)cc1	inconclusive: 72%
CC(=O)N1CSCC1C(=O)NNS(=O)(=O)c1cccc(C(F)(F)F)c1 (configuration not stated)	inconclusive: -326%
C=CCOc1ccn(C)c(=O)n1	inconclusive: 244%
COc1ccc(C2CC(c3cccs3)=NN2C(=O)c2ccco2)cc1OC (configuration not stated)	inconclusive: 79.8%
CC1CCCC(NC(=S)Nc2cccc(S(=O)(=O)N(C)C)c2)C1C (configuration not stated)	inactive: 101%
c1ccc2c(c1)CCCC2NC1=NCCC1 (configuration not stated)	inactive: 105%
COc1cc(CC(NC(C)=O)C(=O)NC2CCN(C(=O)c3cc(OC)c(OC)c(OC)c3)CC2)cc(OC)c1 (configuration not stated)	inactive: 119%
O=C(Nc1cccc(S(=O)(=O)N2CCCCC2)c1)c1ccc2ncsc2c1	inconclusive: 102%
Cc1ccc(Cn2nc(C)cc2C(=O)Nc2ccc(Cl)cc2)cc1	inconclusive: 65.6%
CC(C)NC(=O)c1cc(-n2cnnc2)ccc1Cl	inactive: 94.1%
O=C(CSc1nccc(-c2cccs2)n1)Nc1cccc(Cl)c1	inconclusive: 111%
C/C(=N/NC(=O)CNC(=O)CCc1ccccc1)c1ccc(Cl)cc1	inconclusive: 195%
CC(OC(=O)CCCc1nc2ccccc2s1)C(=O)NC(N)=O (configuration not stated)	inconclusive: 118%
CCOC(=O)c1sc(=S)n(-c2ccccc2)c1NC(C)=O	inconclusive: 107%
N#Cc1c(Cl)nsc1NC(=O)c1ccccc1	inactive: 96.3%

SMILES	binding response (% of control)
Cc1ccc(S(=O)(=O)N2CCOCC2)cc1NC(=O)CNCc1cccnc1	inconclusive: 112%
CSc1nc(C)c(Cc2c(F)cccc2Cl)c(=O)[nH]1	inconclusive: 97.1%
CCCCN(CC)S(=O)(=O)c1ccc2c(c1)n(C)c(=O)c(=O)n2C	inconclusive: 92%
CCOC(=O)c1[nH]c(C)c(/C=N/O)c1C	inactive: 101%
COc1ccccc1CCNC(=O)c1cc(-c2ccccn2)nc2ccc(Br)cc12	inconclusive: 72.9%
CC(C)CNc1nnnc2c1sc1nc(N3CCOCC3)c3c(c12)CCCC3	inconclusive: 113%
COc1ccc(C(C)=O)cc1COC(=O)c1cnc(Cl)c(Cl)c1	inactive: 100%
COc1ccc2oc(=O)c(C(=O)Nc3ccccc3O)cc2c1	inconclusive: 155%
CCOC(=O)c1c(N)c2cc([N+](=O)[O-])ccc2n1C	inconclusive: 131%
Cc1ccccc1-c1ccc(/C=C2/SC(N3CCOCC3)=NC2=O)o1	inconclusive: 112%
Cc1nc(-c2ccc(Cl)cc2)sc1C(=O)NNC(=O)C(C)C	inconclusive: 107%
C/C(=N/OC(=O)c1ccccc1)c1oc(C)nc1C	inconclusive: 148%
CCCC(=O)Nc1nnc(CCN2CCCCC2)s1	inactive: 105%
OCc1cc(-c2ccc(Cl)c(Cl)c2)on1	inactive: 96.3%
O=C(NCCCc1ccccc1)Nc1cccc(Cl)c1	inactive: 103%
COc1ccc(S(=O)(=O)N2CCC(C(=O)N3CCCCC3)CC2)cc1Cl	inactive: 103%
O=C(C(=O)N1CCN(c2ccccc2)CC1)c1c[nH]c2ccccc12	inconclusive: 127%
CN(c1ccccc1)S(=O)(=O)c1cccc(NC(=O)C2CC(=O)N(Cc3ccccc3)C2)c1 (configuration not stated)	inconclusive: 96.3%
NC(=O)SCC(=O)Nc1ccccc1C(=O)O	inconclusive: 260%
CCOC(=O)c1ccccc1-n1nnnc1C	inconclusive: 125%
CN1CCN(c2ccc(Cl)cc2NC(=O)C2COc3ccccc3O2)CC1 (configuration not stated)	inactive: 97.1%

Ordered by molar mass (high to low): part of the list above
SMILES	binding response (% of control)
COc1ccccc1CCNC(=O)c1cc(-c2ccccn2)nc2ccc(Br)cc12	inconclusive: 72.9%
CCCCN(CC)S(=O)(=O)c1ccc2c(c1)n(C)c(=O)c(=O)n2C	inconclusive: 92%
O=C(C(=O)N1CCN(c2ccccc2)CC1)c1c[nH]c2ccccc12	inconclusive: 127%
C/C(=N/OC(=O)c1ccccc1)c1oc(C)nc1C	inconclusive: 148%
NC(=O)SCC(=O)Nc1ccccc1C(=O)O	inconclusive: 260%

Additional structures follow:

SMILES	binding response (% of control)
Cc1ccc([N+](=O)[O-])c(OCCN2CCC(Cc3ccccc3)CC2)c1	inconclusive: 124%
O=C(NCC(O)COc1ccc([N+](=O)[O-])cc1)Nc1ccccc1 (configuration not stated)	inconclusive: 110%
Cc1ccc2oc(Nc3nc(C)c(C)c(C)n3)nc2c1	inconclusive: 137%
COc1cc([N+](=O)[O-])c(OC)cc1SCc1n[nH]c(=S)n1-c1ccc(F)cc1	inconclusive: 125%
CSc1nc(S(=O)(=O)c2ccccc2)c(Cl)s1	inconclusive: 94.8%
COc1cc(O)c(C(CC(=O)N2CCCC(C)C2)c2cc(OC)c(OC)c(OC)c2)c(OC)c1 (configuration not stated)	inconclusive: 105%
Cc1ccc(-c2nn(CC(=O)NN3CCOCC3)c(=O)c3ccccc23)cc1	inconclusive: 65.1%
COc1cccc(CNC(=O)CCC2CCCN(Cc3ccc4c(c3)CCO4)C2)c1 (configuration not stated)	inconclusive: 280%
C=CCC(Nc1ccccc1)c1cccc(OC)c1OC (configuration not stated)	inconclusive: 5.7%
COc1ccccc1CNC(=S)NC1CCCC1	inactive: 103%
C=CCNC(=O)C1CC1(c1ccccc1)c1ccccc1 (configuration not stated)	inactive: 99.4%
Clc1ccc(OCc2noc(-c3ccsc3)n2)c(Cl)c1	inconclusive: 83.2%
COC(=O)c1[nH]c2ccccc2c1NC(=O)C(C)N1CCOCC1 (configuration not stated)	inconclusive: 96.7%
CCn1c(-c2cc(-c3ccccc3)sc2N)n[nH]c1=S	inconclusive: -94.9%
O=S(=O)(N1CCCCC1)n1nnc2ccccc21	inactive: 107%
O=C(NCCO)c1cc2ccccc2cc1O	inconclusive: 101%
CCCC(=O)Nc1ccc(C=C(C(C)=O)C(C)=O)cc1	inconclusive: 118%
Cc1ccc(C(=O)Nc2cccc3ncccc23)cc1[N+](=O)[O-]	inconclusive: 116%
CCc1ccccc1NNC(=O)c1cc(C)on1	inconclusive: 77.4%
Cc1csc(NC(=O)c2ccc(S(=O)(=O)N3CCCC3)cc2)n1	inconclusive: 96.5%

Reference: PubChem BioAssay AID1439 (NMMLSC, 2008)
